# Test results taken from PMC7819943, “Rice protein-binding microarrays: a tool to detect cis-acting elements near promoter regions in rice”.
# Protein sequences, listed by entry. Tags and fused reporters are not part of them.
# UniProt Q0JBA9, entry or part of it: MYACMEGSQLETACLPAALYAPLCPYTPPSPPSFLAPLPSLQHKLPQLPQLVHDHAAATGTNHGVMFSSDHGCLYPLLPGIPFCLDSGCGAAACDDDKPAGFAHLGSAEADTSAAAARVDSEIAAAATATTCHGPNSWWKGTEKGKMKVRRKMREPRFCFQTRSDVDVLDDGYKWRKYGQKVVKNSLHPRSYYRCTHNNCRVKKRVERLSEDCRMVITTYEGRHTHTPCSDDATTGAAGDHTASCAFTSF
# The other results are listed elsewhere or left out.
# Biological target: OsWRKY34 (Oryza sativa, UniProt Q0JBA9 1-250)
# Experiment: protein-binding microarray (RPBM); PBS, 2% BSA, 51.3 ng/ul salmon testes DNA, 50 uM zinc acetate, 200 nM TF, 25 C, 1 h; high values mean tight binding
# Settings: protein: recombinant; tags: N-terminal polyhistidine and DsRed monomer fusion (pET32a); label: CyDye5-dUTP incorporated in the synthesized complementary strand; 3' TTTTT single-stranded linker to array surface; dsDNA, one strand shown
# How it was run: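 The binding signal is fluorescence intensity per array feature (arbitrary units). Readings came from an Axon 4000B scanner after a washed, 2% BSA-blocked, double-stranded custom Agilent array had been incubated for 1 h at 25 °C with 200 nM protein and 50 µM zinc acetate. The protein was a Ni–NTA-purified transcription factor fused N-terminally to polyhistidine and DsRed, expressed in E. coli BL21-CodonPlus.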
row,Sequence,binding signal
1,CTTTCCTACTTAACTCTTTATGTTACTCCGTATTCTGTTTCGGAGTCACCTAGTGCAG,12600 fluorescence intensity (a.u.)
2,CGTCCGGCCGCGAAACCGAGCCTTCTGACCACCGCCGAAACGGAGTCACCTAGTGCAG,8050 fluorescence intensity (a.u.)
3,AAGAACACAACACACTTGATATATATACCTCACACACACTCGGAGTCACCTAGTGCAG,8060 fluorescence intensity (a.u.)
4,TCCTACACCACCCCGTTCTCGCGCCCATCGATCCAACCGACGGAGTCACCTAGTGCAG,8920 fluorescence intensity (a.u.)
5,TTGGGTATTATGTATGGTGTTACATAGGGTGTTTGGGCACCGGAGTCACCTAGTGCAG,10900 fluorescence intensity (a.u.)
6,CTTCGCCCTGACTCTTGCGGTTTGTTCCACTTTGAACTTTCGGAGTCACCTAGTGCAG,9380 fluorescence intensity (a.u.)
7,GACACCCTATATAATACCTGATGTGATACGCCAACACTTTCGGAGTCACCTAGTGCAG,8920 fluorescence intensity (a.u.)
8,ATACGCATCACTGGATATCTTTCACATCACTTTAAGCATACGGAGTCACCTAGTGCAG,9450 fluorescence intensity (a.u.)
9,TTTCAGATCATGGTTTGGTTTGGTAGGGTTTGTGCACTGTCGGAGTCACCTAGTGCAG,11100 fluorescence intensity (a.u.)
10,CAAATATACACGGTGTTACTGGATCTCCCGGCCCTACAGACGGAGTCACCTAGTGCAG,8110 fluorescence intensity (a.u.)
11,AACCGCTTTTTTTTCATTTTCTCTTATTTTTGTGTATTATCGGAGTCACCTAGTGCAG,10700 fluorescence intensity (a.u.)
12,TATGGACTGTTTTGTTTTGTTCCCCTAGCTAGAATTATTCCGGAGTCACCTAGTGCAG,9880 fluorescence intensity (a.u.)
13,TTTCTATTCCTCTGTTTTTCTATTCTTGTGATTCAAAGGGCGGAGTCACCTAGTGCAG,8840 fluorescence intensity (a.u.)
14,GAGTTTAACTTTGATAATTGTTCTCGTTTTTTCTAAACTCCGGAGTCACCTAGTGCAG,8140 fluorescence intensity (a.u.)
15,GCTCAACTGTACGATGTTTTTATTGAACTTATCTATACCCCGGAGTCACCTAGTGCAG,9560 fluorescence intensity (a.u.)
16,CACCTAGCAGTTTTCTGAAATGCCCAACTACCGTTCTCGTCGGAGTCACCTAGTGCAG,8930 fluorescence intensity (a.u.)
17,TCAAGATGCATGTATCTATCCTGTACAAGTGAACAGCTCACGGAGTCACCTAGTGCAG,8250 fluorescence intensity (a.u.)
18,CCCACGTCACGCCCACACACACGCTGGCCCTCTCAACGGCCGGAGTCACCTAGTGCAG,8580 fluorescence intensity (a.u.)
19,CCCACACCTCCACTCCACTCCACGCCATTTTTTCGCTCGCCGGAGTCACCTAGTGCAG,9440 fluorescence intensity (a.u.)
20,GTTGACATCTTGTTTTTTGGTTCGTTTGCCATGGTAGTTTCGGAGTCACCTAGTGCAG,8220 fluorescence intensity (a.u.)
21,CCACCAACCTGCATCCTGGCCCAATCACGTCCCACCGAATCGGAGTCACCTAGTGCAG,9700 fluorescence intensity (a.u.)

row,Sequence,binding signal
1,ACATGTCAGCCGCGATCCAGTTCTAGCCCAACAACTATGGCGGAGTCACCTAGTGCAG,8340 fluorescence intensity (a.u.)
2,ATTTCACCGTCACCGCCTCATTCTTTCCGATCCTCCGCGCCGGAGTCACCTAGTGCAG,9500 fluorescence intensity (a.u.)
3,TCCCGCTGCTGTGTGCGTGTGCGTGCCGAGGGAGGGAGGGCGGAGTCACCTAGTGCAG,9550 fluorescence intensity (a.u.)
4,GGGCCACCGCGAACAACTGATCTCCTCCGAACCCTCTGCACGGAGTCACCTAGTGCAG,8230 fluorescence intensity (a.u.)
5,GTGCCTGAACTAGCATAATCACTGTGTCACCATCTTTCCTCGGAGTCACCTAGTGCAG,8060 fluorescence intensity (a.u.)
6,AATCGTACCCATTGGATCCAGATATCCAACGCTTCAGAATCGGAGTCACCTAGTGCAG,8040 fluorescence intensity (a.u.)
7,ATCATCCAGCACAATCAAACATTTGCTATCTTCAATCTTTCGGAGTCACCTAGTGCAG,9340 fluorescence intensity (a.u.)
8,AACCTCGCCCTCGTCCGCGTACACCGGCGCAGCCTGAGACCGGAGTCACCTAGTGCAG,8900 fluorescence intensity (a.u.)
9,ATTGGATCGGATCAGATCCCTTTTGCGCACCACTCGCCTTCGGAGTCACCTAGTGCAG,8750 fluorescence intensity (a.u.)
10,CCCTGAAGCAATTTTGTTCGCTGTGCAGATGTGCTACCATCGGAGTCACCTAGTGCAG,8050 fluorescence intensity (a.u.)
11,AGCTAACAAAATGCCCACTTGTGCATACATTCTTTCTTTTCGGAGTCACCTAGTGCAG,8670 fluorescence intensity (a.u.)
12,CTGTCCTTCTATGTGATTTATCTTACCTTTTGCTCATTACCGGAGTCACCTAGTGCAG,10400 fluorescence intensity (a.u.)
13,TCTCTCTTCACGGGAGGGCAGTGTGGTTTTGGTCGGATTCCGGAGTCACCTAGTGCAG,8630 fluorescence intensity (a.u.)
14,TCTTCGAAGATGCTCATAGGGGTAGGGTTTGCGTGCGTGTCGGAGTCACCTAGTGCAG,9040 fluorescence intensity (a.u.)
15,CCATCTCAACCCATTTGCACCCACGTCGCCGTGCATCCGCCGGAGTCACCTAGTGCAG,8510 fluorescence intensity (a.u.)
16,GGTATTTGTCTTTCACCTTGAGTCAGCCCCAATTTCCAATCGGAGTCACCTAGTGCAG,9270 fluorescence intensity (a.u.)
17,CAGACCGTACAATTTACGAGTACTTCACTGTTTCCTTTCTCGGAGTCACCTAGTGCAG,11800 fluorescence intensity (a.u.)
18,GGAATGGGGACTTACAGGGTTTTGCAATTTATTGGGTTTACGGAGTCACCTAGTGCAG,8210 fluorescence intensity (a.u.)
19,CACAGGGCATGAATTGATGAATAGGATGGCCATTTTTTTTCGGAGTCACCTAGTGCAG,65000 fluorescence intensity (a.u.)
20,GATTGGTTGAAAATGTTTCTATTCTTAATGAATATCCTATCGGAGTCACCTAGTGCAG,8080 fluorescence intensity (a.u.)
21,AAGGATCGCTTTGTTTCCTTTCGTTTCGTTTCGTTTTGGGCGGAGTCACCTAGTGCAG,8610 fluorescence intensity (a.u.)

# Random excerpt: 3 records from the list
row,Sequence,binding signal
12,CTGTCCTTCTATGTGATTTATCTTACCTTTTGCTCATTACCGGAGTCACCTAGTGCAG,10400 fluorescence intensity (a.u.)
21,AAGGATCGCTTTGTTTCCTTTCGTTTCGTTTCGTTTTGGGCGGAGTCACCTAGTGCAG,8610 fluorescence intensity (a.u.)
3,AAGAACACAACACACTTGATATATATACCTCACACACACTCGGAGTCACCTAGTGCAG,8060 fluorescence intensity (a.u.)
